Results as given in publication doi:10.1101/2023.10.24.563883.
These are yes or no findings as the source states them, for the method shown. Binding seen in cells or lysates may run through a third protein. Here binding means that the protein was enriched with, or labelled near, the bait; the list need not be complete. Where a sequence is shown, tags or fusion partners need not be part of it.

T1: Flag-tagged LPHN2-GAIN (UniProt O95490)
T1 sequence: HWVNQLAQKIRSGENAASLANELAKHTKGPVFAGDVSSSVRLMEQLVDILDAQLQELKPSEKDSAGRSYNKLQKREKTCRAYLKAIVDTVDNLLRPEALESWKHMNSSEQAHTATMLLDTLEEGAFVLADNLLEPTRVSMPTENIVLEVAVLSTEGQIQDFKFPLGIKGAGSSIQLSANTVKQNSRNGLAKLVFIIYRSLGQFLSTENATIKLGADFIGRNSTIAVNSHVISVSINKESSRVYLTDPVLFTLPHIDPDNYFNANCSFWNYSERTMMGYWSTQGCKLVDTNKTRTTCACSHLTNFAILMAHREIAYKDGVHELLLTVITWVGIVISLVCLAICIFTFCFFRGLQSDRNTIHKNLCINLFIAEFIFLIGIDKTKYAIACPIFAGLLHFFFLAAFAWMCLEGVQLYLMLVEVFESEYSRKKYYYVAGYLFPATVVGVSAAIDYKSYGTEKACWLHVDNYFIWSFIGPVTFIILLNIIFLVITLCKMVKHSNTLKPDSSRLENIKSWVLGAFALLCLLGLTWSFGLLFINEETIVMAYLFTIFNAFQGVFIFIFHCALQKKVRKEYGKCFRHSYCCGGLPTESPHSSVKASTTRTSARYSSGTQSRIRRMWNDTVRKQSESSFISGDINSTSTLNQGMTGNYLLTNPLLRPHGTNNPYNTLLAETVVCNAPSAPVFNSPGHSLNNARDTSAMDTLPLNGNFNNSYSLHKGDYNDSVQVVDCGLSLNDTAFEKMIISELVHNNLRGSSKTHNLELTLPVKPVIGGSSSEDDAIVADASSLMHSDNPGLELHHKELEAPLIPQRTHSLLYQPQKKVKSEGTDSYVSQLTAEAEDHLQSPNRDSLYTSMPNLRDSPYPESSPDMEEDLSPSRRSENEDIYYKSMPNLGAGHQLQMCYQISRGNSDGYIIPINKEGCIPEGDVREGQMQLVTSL

B1: TMC1 (endogenous, mouse cochlea) (protein, UniProt Q8R4P5 1-757)
chain: MLQIQVEEKEEDTEESSSEEEEDKLPRRESLRPKRKRTRDVINEDDPEPEPEDEETRKAREKERRRRLRRGAEEEEEIDEEELERLKALLDENRQMIATVKCKPWKMEKKIEVLKEAKKFVSENEGALGKGKGKKWFAFKMMMAKKWAKFLRDFENFKAACVPWENKIKAIESQFGSSVASYFLFLRWMYGVNMVLFVLTFSLIMLPEYLWGLPYGSLPRKTVPRAEEASAANFGVLYDFNGLAQYSVLFYGYYDNKRTIGWLNFRLPLSYFLVGIMCIGYSFLVVLKAMTKNIGDDGGGDDNTFNFSWKVFCSWDYLIGNPETADNKFNSITMNFKEAIIEERAAQVEENIHLIRFLRFLANFFVFLTLGASGYLIFWAVKRSQEFAQQDPDTLGWWEKNEMNMVMSLLGMFCPTLFDLFAELEDYHPLIALKWLLGRIFALLLGNLYVFILALMDEINNKIEEEKLVKANITLWEANMIKAYNESLSGLSGNTTGAPFFVHPADVPRGPCWETMVGQEFVRLTVSDVLTTYVTILIGDFLRACFVRFCNYCWCWDLEYGYPSYTEFDISGNVLALIFNQGMIWMGSFFAPSLPGINILRLHTSMYFQCWAVMCCNVPEARVFKASRSNNFYLGMLLLILFLSTMPVLYMIVSLPPSFDCGPFSGKNRMFEVIGETLEHDFPSWMAKILRQLSNPGLVIAVILVMVLTIYYLNATAKGQKAANLDLKKKMKQQALENKMRNKKMAAARAAAAAGGQ
B2: CNGA3 (endogenous, mouse cochlea) (protein, UniProt Q9JJZ8 1-631)
chain: MAKVNTQCSQPSPTQLSIKNADRDLDHVENGLGRVSRLIISIRAWASRHLHDEDQTPDSFLDRFHGSELKEVSTRESNAQPNPGEQKPPDGGEGRKEEPIVVDPSSNIYYRWLTAIALPVFYNWCLLVCRACFDELQSEHLTLWLVLDYSADVLYVLDMLVRARTGFLEQGLMVRDTKRLWKHYTKTLHFKLDILSLIPTDLAYLKLGVNYPELRFNRLLKFSRLFEFFDRTETRTNYPNVFRIGNLVLYTLIIIHWNACIYFAISKFIGFGTDSWVYPNTSKPEYARLSRKYIYSLYWSTLTLTTIGETPPPVKDEEYLFVVIDFLVGILIFATIVGNVGSMISNMNAPRVEFQAKIDSVKQYMQFRKVTKDLETRVIRWFDYLWANRKTVDEKEVLKNLPDKLKAEIAINVHLDTLKKVRIFQDCEAGLLVELVLKLRPTVFSPGDYICKKGDIGREMYIIKEGKLAVVADDGVTQFVVLSDGSYFGEISILNIKGSKSGNRRTANIRSIGYSDLFCLSKDDLMEALTEYPDAKRALEEKGRQILMKDNLIDEDLVAARVDTRDVEEKVEYLESSLDILQTRFARLLAEYSASQMKLKQRLTRLESQMNRRCCGFSPDRENSEDASKTD

Molecular target: T1, Flag-tagged LPHN2-GAIN
Assay: affinity purification with mass spectrometry

Molecule | binding
PCDH15 (endogenous, mouse cochlea) (from UniProt Q99PJ1 27-1943) | binds
B1 | binds
B2 | binds
